Reference: patent US20080267908A1 (YEDA RESEARCH AND DEVELOPMENT, published 2008)
Results are given in words; binding and its absence hold for the method and conditions named. Binding calls can cover weak binding; strength is not graded here.

The chains behind the UniProt entries cited, without tags or fusion partners. Where a name states a change or a piece, a line headed by the entry shows the natural chain unless it says otherwise.
UniProt P24001: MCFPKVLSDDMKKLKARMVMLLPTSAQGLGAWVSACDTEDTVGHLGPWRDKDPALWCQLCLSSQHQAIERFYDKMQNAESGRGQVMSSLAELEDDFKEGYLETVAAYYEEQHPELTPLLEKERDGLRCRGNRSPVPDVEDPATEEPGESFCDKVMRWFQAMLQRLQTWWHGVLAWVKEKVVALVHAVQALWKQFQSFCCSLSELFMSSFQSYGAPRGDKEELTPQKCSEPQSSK
UniProt P24158: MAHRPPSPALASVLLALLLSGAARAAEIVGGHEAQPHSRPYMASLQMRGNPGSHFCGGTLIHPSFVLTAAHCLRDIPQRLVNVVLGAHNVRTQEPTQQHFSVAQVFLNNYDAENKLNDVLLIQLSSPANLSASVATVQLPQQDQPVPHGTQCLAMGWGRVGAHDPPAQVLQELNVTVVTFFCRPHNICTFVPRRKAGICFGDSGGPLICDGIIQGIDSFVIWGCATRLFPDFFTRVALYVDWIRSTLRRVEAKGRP

Target: T1, recombinant human IL-32α produced in E. coli (human) (UniProt P24001)
T1 sequence: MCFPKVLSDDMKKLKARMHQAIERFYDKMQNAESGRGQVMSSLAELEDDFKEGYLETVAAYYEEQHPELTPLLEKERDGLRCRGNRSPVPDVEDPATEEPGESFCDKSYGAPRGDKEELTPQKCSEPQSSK
Assay: SPR (BIAcore), IL-32 immobilized

binding: binds
Substance: human urinary PR-3 inactivated by phenyl methyl sulfonyl fluoride (PMSF) (from UniProt P24158) (enzyme)
